Results are given in words; binding and its absence hold for the method and conditions named. Binding seen in cells or lysates may run through a third protein. Binding calls can cover weak binding; strength is not graded here. Tags and fused reporters may be left off the sequences shown. Blank lines part the entries; values can stand above or below the molecule they belong to.
Columns and labels:
[1] = biological target: T1, SKAP1 (SKAP-55), wild type, Flag-tagged or GFP-tagged copy (UniProt Q86WV1); assay: co-IP; GFP-SKAP1, Flag-SKAP1 (wild type or A17/F20/L21 mutant) and V5-RapL co-expressed in 293T cells; precipitation with anti-Flag, anti-GFP or anti-V5
T1 sequence: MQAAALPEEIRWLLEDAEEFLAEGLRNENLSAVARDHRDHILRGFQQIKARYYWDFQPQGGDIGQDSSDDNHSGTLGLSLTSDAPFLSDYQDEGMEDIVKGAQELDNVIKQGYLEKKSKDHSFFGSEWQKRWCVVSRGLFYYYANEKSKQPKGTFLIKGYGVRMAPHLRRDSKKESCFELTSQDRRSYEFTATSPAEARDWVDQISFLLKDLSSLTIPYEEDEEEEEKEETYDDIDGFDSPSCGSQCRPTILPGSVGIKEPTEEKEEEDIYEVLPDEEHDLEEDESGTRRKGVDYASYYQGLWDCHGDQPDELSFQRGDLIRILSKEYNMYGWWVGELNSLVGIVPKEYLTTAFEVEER

V5-tagged RapL = assay: as above
[2] = biological target: Flag-tagged SKAP1 with mutations in residues A17/F20/L21 (UniProt Q86WV1); assay: co-IP; Combinations of Flag- and GFP-tagged SKAP1 expressed in 293T cells; anti-Flag precipitation; blotted with anti-SKAP1

binding [1]: binds weakly
Molecule: V5-tagged RapL

binding (V5-tagged RapL): binds
binding [2]: binds
B1: SKAP1 (SKAP-55), wild type, Flag-tagged or GFP-tagged copy (protein, UniProt Q86WV1 1-359)
chain: T1 sequence
